Test results from patent US20070004616 (published 2007).

Assay: general procedure: Boc solid-phase peptide synthesis; MBHA; HBTU/DIEA
Conditions: whole synthesis, analytical HPLC

In the case of (Aib^8,35)hGLP-1(7-36)NH2, the “final HPLC purity” value is reported as 98.6%.
